Data taken from PubChem BioAssay AID743255 (National Center for Advancing Translational Sciences (NCATS), 2014).
The whole screen tested about 390,000 compounds, of which about 910 (0.23%) were called active. The shares of active, inactive and inconclusive entries below differ from those in the screen. The call rests on the fitted dose curve; in most records, active means well fitted inhibition curve with a large enough effect; inconclusive means small, poorly fitted or top-dose-only effect; inactive means no such curve, though single readings can be large or run the other way. A potency beside an inconclusive call is a rough fit, not a confirmed value.

By UniProt entry, the sequences of proteins in these tests, tags left out. Where a name states a change or a piece, a line headed by the entry shows the natural chain unless it says otherwise.
UniProt O94782: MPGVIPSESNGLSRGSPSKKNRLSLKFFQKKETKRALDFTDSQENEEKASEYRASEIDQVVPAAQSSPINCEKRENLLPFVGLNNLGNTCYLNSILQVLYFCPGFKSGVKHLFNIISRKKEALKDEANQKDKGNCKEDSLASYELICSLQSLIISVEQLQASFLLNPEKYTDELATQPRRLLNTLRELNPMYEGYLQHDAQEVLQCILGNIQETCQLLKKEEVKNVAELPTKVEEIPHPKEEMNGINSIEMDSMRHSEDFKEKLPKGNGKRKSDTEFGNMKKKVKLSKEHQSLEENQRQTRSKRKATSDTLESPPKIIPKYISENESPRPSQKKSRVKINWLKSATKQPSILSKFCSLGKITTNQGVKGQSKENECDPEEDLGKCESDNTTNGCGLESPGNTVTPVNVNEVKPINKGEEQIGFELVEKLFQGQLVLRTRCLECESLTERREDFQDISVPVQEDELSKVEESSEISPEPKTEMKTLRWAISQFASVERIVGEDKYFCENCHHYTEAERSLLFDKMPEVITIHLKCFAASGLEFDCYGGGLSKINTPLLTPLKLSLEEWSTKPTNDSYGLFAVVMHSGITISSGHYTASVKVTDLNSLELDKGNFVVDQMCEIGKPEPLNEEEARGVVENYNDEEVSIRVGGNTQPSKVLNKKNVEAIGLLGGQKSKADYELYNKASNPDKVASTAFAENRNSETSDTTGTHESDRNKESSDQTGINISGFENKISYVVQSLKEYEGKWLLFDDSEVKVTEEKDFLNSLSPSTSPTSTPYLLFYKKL

What follows are compounds tested against Ubiquitin carboxyl-terminal hydrolase 1 (Homo sapiens) (UniProt O94782) (assay: Inhibitors of USP1/UAF1: Primary Screen). Settings: recombinant USP1/UAF1, Ub-Rhodamine cleavage fluorescence; series mostly up to 57.1 µM.
Procedure, shortened: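 USP1/UAF1 complex (1 nM) preincubated 15 min at room temperature with compound, then Ub-Rho substrate (150 nM final) added. Kinetic fluorescence at 480/540 nm over 6 reads at 60 s intervals; 50 mM HEPES pH 7.8, 0.5 mM EDTA, 0.1 mg/ml BSA, 1 mM TCEP, 0.01% Tween-20.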
Further: nearly all actives have a fitted effect of over 60% in size.
Potency means the concentration at half of the fitted maximal effect.

Compound | Potency
COc1cc(/C=C/c2ccc3cccc(OC)c3n2)c(O)c([N+](=O)[O-])c1 | inactive
CC(C)C(=O)Nc1cccnc1 | inconclusive: 39.8 µM [inhibitor, partial curve, poor fit]
O=C(Cn1ccn(-c2ccc(F)c(F)c2)c(=O)c1=O)Nc1ccccc1F | inconclusive: 6.31 µM [inhibitor, partial curve]
Cc1nc2sc(C(c3ccco3)N3CCN(c4ccccc4F)CC3)c(O)n2n1 (stereo not drawn) | inconclusive: 11.2 µM [inhibitor, partial curve]
CCc1ccc(CNC(=O)c2sc3ncccc3c2-n2c(C)ccc2C)cc1 | inconclusive: 3.98 µM [inhibitor, single point]
Cc1ccccc1-n1c(SCC(=O)Nc2ccc(Cl)cc2F)nnc1-c1cc2occc2n1C | inconclusive: 0.251 µM [inhibitor, full curve, poor fit]
COc1ccc(CCNS(=O)(=O)c2ccc(Br)s2)cc1 | inactive
Cc1ccc(Cn2c(C(=O)O)c(CNCc3ccccc3Cl)c3ccc(C)cc32)cc1 | inactive
c1cnc(SCCCOc2ccc3ccccc3c2)nc1 | inactive
Cc1ccc(C)c(OCCCNC2CCCC2)c1C | inactive
Cc1ccc(Cl)cc1N1CCN(C(=O)c2cnc(N3CCOCC3)c3ccccc23)CC1 | inconclusive: 79.4 µM [inhibitor, partial curve, poor fit]
CCc1ccc(C2c3c(-c4ccccc4O)n[nH]c3C(=O)N2Cc2ccncc2)cc1 (stereo not drawn) | inconclusive: 1.41 µM [inhibitor, partial curve, poor fit]
O=C(c1ccc(C(F)(F)F)cc1)N1CCC(=O)N(C(COCc2ccc(Cl)cc2)Cc2ccccc2)CC1 (stereo not drawn) | inconclusive: 0.708 µM [inhibitor, full curve, poor fit]
CC(C)CCNC(=O)CCCN1C(=O)c2ccccc2Sc2ncccc21 | inactive
COc1cc(/C=C/C(=O)O)ccc1OS(=O)(=O)c1ccc(C)cc1 | inactive
CCOC(=O)c1cnc2c(Cl)c(Cl)ccc2c1NCCN1CCOCC1 | inactive
CCOC(=O)N(C)C[C@@H]1OCc2cn(nn2)CCCC(=O)N([C@@H](C)CO)C[C@H]1C | inconclusive: 0.282 µM [inhibitor, full curve, poor fit]
CC1CC=C2C(C#N)=C(N)C(C#N)(C#N)C(c3cccs3)C2C1 (stereo not drawn) | inconclusive: 35.5 µM [inhibitor, partial curve]
O=C(NN1C(=O)/C(=C/c2cccs2)SC1=S)c1cccnc1 | inactive
CCn1ccc2cc(OC)ccc2c1=S | inactive
COc1ccc(Nc2ncnc3c2c(-c2ccccc2)cn3-c2ccc(C)c(Cl)c2)cc1OC | inconclusive: 5.01 µM [inhibitor, partial curve]
Cc1ccc2onc(CNC(=O)Nc3ccccc3C#N)c2c1 | inconclusive: 0.631 µM [inhibitor, full curve, poor fit]

Reprinted at random: 3 entries already listed.
Compound | Potency
CC(C)CCNC(=O)CCCN1C(=O)c2ccccc2Sc2ncccc21 | inactive
O=C(c1ccc(C(F)(F)F)cc1)N1CCC(=O)N(C(COCc2ccc(Cl)cc2)Cc2ccccc2)CC1 (stereo not drawn) | inconclusive: 0.708 µM [inhibitor, full curve, poor fit]
c1cnc(SCCCOc2ccc3ccccc3c2)nc1 | inactive

Later entries:

Compound | Potency
Cc1cc(C)n(CC(O)CN(c2cccc([N+](=O)[O-])c2)S(=O)(=O)c2ccccc2)n1 (stereo not drawn) | inconclusive: 7.08 µM [inhibitor, partial curve, poor fit]
COc1ccccc1N1C(=O)C2C(C(=O)c3ccccc3)=NN(c3ccccc3)C2C1=O (stereo not drawn) | inconclusive: 31.6 µM [inhibitor, single point]
COc1ccc(N2CCN(CCCn3ccc(NC(=O)OCc4ccccc4)nc3=O)CC2)cc1 | inconclusive: 8.91 µM [inhibitor, partial curve]
COC(=O)Cc1cc(=O)[nH]c(/N=C(\N)Nc2ccc(C)cc2)n1 | inconclusive: 5.01 µM [inhibitor, partial curve]
CCOc1ccccc1NC(=O)c1cc2cc(C)ccc2n1C | inactive
Cc1ccc(NC(=O)Nc2nc3ccccc3s2)cc1NC(=O)Nc1nc2ccccc2s1 | inconclusive: 39.8 µM [inhibitor, partial curve, poor fit]
CC1CCN(S(=O)(=O)c2ccc(C(=O)Nc3nc4ccc(F)cc4s3)cc2)CC1 | inconclusive: 0.0891 µM [inhibitor, full curve, poor fit]
Cc1ccc2nc(C)c3c(c2c1)SCC3 | inconclusive: 44.7 µM [inhibitor, partial curve, poor fit]
COc1cccc2sc(Nc3nc(-c4cc5ccccc5oc4=O)cs3)nc12 | inconclusive: 28.2 µM [inhibitor, partial curve]
Cc1cc(C(=O)N[C@H](c2ccccc2)[C@@]2(C)C[C@@H]2[C@@H](C)C(=O)Nc2ccc3ccccc3c2)no1 | inactive
CS(=O)(=O)c1nc(S(=O)(=O)c2ccc(Cl)cc2)c(N2CCOCC2)s1 | inactive
CCC1(CCC(C)C)SC(N)=NC1=O (stereo not drawn) | inconclusive: 8.91 µM [inhibitor, partial curve]
CC1=NOC(=O)/C1=C/c1ccc(O)cc1 | inactive
CCn1cc(C(=O)N2CCN(c3cc(Cl)ccc3C)CC2)c(=O)c2cc(S(=O)(=O)N3CCOCC3)ccc21 | inconclusive: 56.2 µM [inhibitor, partial curve, poor fit]
CCC(=O)N1CCc2cc(Br)cc(S(=O)(=O)N3CCC(C(=O)N(CC)CC)CC3)c21 | inconclusive: 0.355 µM [inhibitor, full curve]
CCOc1ccc(-c2cc3nc(C4CCN(C(=O)OC(C)(C)C)CC4)c(C(=O)Nc4ccc(C)c(F)c4)cn3n2)cc1 | inconclusive: 79.4 µM [inhibitor, partial curve, poor fit]
NC(=S)N=Nc1c(O)n(Cc2ccc(Br)cc2)c2ccccc12 | inconclusive: 8.91 µM [inhibitor, partial curve, poor fit]
Cc1oc2c(c1C(=O)N1CCC(C)CC1)C(=O)c1ccccc1C2=O | inconclusive: 35.5 µM [inhibitor, partial curve]
CCc1ccc(NC(=O)C2CCC(CNS(=O)(=O)c3cccs3)CC2)cc1 (stereo not drawn) | inconclusive: 1.41 µM [inhibitor, partial curve, poor fit]
Cc1cc(C)n2nc(CC(=O)NCc3ccc(F)cc3)nc2n1 | inactive
COC(=O)c1ccc(/C=C/C(=O)c2cccc(OC)c2)cc1 | inconclusive: 44.7 µM [inhibitor, partial curve]
